{
  "source": "patent US7060733B2",
  "about": "“Methods for treating pancreatitis with curcumin compounds and inhibitors of reactive oxygen species” (The Regents of the University of California, priority 2002, dated 2006)",
  "test": "Solubility of curcumin compounds",
  "format": "physicochemical",
  "data": [
    {"smiles": "COc1cc(/C=C/C(=O)CC(=O)/C=C/c2ccc(O)c(OC)c2)ccc1O", "note": "[curcumin]", "values": [
      {"measurement": "solubility in water or ethanol", "setting": "water or ethanol", "result": "insoluble"},
      {"measurement": "solubility in water or saline", "setting": "water or saline", "result": "not soluble"}
    ]}
  ]
}
